In assay [1] the target is T1, serum- and glucocorticoid-induced kinase 3 (SGK3), in co-IP from differentiating cells (UniProt Q9ERE3).
T1 sequence: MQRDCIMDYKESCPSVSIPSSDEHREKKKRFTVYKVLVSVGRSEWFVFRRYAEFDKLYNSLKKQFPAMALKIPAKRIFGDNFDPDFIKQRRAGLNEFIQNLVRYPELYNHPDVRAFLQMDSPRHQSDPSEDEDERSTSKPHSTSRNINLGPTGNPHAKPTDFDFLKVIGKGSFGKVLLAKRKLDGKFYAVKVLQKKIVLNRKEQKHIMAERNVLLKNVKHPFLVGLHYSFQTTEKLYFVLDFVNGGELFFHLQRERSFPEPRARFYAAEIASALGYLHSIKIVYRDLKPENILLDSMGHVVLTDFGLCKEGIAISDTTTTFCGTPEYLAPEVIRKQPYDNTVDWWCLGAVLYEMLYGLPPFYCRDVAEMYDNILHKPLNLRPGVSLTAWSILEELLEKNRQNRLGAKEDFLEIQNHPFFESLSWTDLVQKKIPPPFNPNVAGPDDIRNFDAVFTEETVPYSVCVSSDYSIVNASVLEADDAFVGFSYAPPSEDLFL
Put plainly: co-IP; cells treated with MDI for 3 days (Figure 5F), or with or without MDI for 2 days (Figure 5G); the interaction was markedly enhanced by MDI; which partner was precipitated is not told.

Amino acid sequences for entries named in this document (tags omitted).
UniProt P70168: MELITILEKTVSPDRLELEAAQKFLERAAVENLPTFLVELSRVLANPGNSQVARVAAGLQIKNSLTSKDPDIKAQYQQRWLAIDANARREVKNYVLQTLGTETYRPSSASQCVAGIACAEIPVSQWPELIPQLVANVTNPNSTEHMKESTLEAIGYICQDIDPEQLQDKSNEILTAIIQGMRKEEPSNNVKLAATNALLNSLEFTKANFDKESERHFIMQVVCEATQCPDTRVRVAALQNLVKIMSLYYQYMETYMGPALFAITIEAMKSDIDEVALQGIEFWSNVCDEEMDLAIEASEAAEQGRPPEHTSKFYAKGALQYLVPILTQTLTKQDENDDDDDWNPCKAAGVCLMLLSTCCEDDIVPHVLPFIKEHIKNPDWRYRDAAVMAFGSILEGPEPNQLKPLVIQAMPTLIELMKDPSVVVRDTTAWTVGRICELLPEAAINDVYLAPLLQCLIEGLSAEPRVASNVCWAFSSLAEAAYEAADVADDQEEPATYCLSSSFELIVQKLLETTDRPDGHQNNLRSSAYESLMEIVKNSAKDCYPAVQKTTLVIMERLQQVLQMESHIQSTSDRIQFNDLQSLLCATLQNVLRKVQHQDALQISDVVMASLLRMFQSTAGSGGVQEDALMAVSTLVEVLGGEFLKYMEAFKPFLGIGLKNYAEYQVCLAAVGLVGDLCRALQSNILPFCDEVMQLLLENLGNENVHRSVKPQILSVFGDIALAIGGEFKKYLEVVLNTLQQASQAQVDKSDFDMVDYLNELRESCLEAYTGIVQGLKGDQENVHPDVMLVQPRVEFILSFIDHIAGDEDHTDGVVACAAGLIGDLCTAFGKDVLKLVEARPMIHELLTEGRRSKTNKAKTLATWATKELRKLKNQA
UniProt P51532: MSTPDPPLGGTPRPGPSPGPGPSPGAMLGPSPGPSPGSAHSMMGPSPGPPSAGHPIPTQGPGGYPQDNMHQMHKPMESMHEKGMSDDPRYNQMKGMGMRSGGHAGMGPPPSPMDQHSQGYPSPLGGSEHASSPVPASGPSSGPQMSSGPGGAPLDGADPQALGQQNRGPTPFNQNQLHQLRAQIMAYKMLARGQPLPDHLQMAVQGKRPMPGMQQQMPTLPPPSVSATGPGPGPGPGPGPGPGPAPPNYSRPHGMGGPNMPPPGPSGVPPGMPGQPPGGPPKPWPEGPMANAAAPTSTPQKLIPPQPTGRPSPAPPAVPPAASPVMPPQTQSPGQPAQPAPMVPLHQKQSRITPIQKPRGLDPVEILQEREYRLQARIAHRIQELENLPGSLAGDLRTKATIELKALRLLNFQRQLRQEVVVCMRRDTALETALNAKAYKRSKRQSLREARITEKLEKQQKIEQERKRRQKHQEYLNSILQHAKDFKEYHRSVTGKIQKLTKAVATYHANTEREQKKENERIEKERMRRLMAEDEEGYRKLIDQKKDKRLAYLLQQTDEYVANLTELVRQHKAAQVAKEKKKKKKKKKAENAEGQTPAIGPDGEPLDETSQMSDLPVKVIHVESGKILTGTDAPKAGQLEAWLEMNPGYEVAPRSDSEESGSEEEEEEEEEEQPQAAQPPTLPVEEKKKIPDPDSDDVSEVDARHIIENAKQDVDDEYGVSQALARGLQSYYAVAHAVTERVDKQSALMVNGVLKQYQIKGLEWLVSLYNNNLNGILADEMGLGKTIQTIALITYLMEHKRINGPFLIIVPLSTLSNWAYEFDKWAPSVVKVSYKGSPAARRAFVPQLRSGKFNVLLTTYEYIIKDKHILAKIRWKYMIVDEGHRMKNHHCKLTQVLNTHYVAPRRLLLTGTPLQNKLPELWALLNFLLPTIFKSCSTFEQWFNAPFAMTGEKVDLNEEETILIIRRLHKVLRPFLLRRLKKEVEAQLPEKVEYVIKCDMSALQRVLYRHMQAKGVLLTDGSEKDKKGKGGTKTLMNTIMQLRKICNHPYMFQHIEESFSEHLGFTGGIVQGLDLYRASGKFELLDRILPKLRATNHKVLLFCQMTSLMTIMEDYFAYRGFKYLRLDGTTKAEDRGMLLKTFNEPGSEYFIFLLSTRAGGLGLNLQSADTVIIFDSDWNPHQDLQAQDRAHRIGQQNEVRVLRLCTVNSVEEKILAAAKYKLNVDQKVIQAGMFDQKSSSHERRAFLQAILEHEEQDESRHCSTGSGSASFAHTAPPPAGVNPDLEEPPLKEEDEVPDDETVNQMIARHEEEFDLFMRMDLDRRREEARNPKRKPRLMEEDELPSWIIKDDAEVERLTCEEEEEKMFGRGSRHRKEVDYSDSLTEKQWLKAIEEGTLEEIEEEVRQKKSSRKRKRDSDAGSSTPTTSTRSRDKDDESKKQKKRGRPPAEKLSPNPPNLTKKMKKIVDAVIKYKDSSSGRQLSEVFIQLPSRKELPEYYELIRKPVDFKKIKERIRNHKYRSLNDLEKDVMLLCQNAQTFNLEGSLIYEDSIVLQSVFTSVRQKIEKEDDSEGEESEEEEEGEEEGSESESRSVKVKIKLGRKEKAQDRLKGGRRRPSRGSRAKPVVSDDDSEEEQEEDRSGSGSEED
UniProt Q3TKT4: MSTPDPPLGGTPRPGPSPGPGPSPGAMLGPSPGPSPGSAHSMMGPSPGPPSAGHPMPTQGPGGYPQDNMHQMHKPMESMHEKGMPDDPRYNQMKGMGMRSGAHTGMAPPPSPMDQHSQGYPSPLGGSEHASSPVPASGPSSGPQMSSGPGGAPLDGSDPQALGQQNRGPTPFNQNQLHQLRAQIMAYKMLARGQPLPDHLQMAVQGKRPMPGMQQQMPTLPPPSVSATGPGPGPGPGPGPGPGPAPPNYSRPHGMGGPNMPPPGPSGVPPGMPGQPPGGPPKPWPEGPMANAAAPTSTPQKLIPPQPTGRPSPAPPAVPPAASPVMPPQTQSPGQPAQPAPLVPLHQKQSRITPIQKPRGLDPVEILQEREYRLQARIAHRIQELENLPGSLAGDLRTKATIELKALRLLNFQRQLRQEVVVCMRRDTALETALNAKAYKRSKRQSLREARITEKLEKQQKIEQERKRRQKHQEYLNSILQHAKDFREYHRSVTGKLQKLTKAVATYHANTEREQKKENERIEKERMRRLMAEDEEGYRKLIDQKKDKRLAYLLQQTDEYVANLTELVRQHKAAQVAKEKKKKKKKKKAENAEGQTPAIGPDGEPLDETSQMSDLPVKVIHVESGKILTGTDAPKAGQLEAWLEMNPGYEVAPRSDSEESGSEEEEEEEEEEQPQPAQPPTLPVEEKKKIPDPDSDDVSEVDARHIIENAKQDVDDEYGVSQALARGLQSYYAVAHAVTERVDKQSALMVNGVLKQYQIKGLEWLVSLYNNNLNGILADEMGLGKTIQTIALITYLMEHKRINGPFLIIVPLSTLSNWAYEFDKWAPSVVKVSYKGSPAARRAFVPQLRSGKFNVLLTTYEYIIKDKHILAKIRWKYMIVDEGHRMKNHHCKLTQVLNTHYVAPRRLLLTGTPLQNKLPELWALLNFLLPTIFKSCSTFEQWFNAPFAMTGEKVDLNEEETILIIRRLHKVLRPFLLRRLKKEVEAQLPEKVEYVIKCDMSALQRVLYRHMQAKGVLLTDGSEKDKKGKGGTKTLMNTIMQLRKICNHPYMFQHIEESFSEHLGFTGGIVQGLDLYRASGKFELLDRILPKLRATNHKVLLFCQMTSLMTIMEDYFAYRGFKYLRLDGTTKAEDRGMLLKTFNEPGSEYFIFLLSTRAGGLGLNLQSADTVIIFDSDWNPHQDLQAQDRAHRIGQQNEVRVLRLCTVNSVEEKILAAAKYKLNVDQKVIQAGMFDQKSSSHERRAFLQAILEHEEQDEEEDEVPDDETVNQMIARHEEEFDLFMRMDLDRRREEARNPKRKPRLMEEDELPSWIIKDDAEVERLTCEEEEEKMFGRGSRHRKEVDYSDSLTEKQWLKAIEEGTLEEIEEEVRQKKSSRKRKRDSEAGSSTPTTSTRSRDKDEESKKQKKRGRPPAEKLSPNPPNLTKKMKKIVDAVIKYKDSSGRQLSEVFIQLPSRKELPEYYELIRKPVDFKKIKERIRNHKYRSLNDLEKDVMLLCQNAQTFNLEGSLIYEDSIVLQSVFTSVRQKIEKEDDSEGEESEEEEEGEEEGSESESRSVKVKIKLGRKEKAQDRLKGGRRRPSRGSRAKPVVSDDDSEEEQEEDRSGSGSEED

Assay [2] has as its target T2, GST-SGK3 (UniProt Q9ERE3).
T2 sequence: T1 sequence
Put plainly: pull-down; GST pulldown with purified GST or GST-SGK3 proteins as baits; BRG1 band detected; the source of BRG1 is not told; the paper calls the interaction direct.

For assay [3], the target named is T1, serum- and glucocorticoid-induced kinase 3 (SGK3), in co-IP from differentiating cells. Kind of assay: co-IP; differentiating SVF cells; which partner was precipitated is not told.

Results are given in words; binding and its absence hold for the method and conditions named. Binding seen in cells or lysates may run through a third protein. Some entries that bind do so weakly or less than the wild type. Sequences can lack the tags named with a protein.

Consider Importin β1 (from UniProt P70168 1-876), for which, in assay [1], the binding result is given as “binds”.

On to “BRG1 protein in the GST pulldown assay (from UniProt P51532 1-1647)”, for which the binding entry in assay [2] was “binds”.

With “SMARCA4 (BRG1), core subunit of the BAF (SWI/SNF) complex, in differentiating SVF cells (from UniProt Q3TKT4 1-1613)”, the binding entry in assay [3] is listed as “binds”.

The values above are taken from PMC12483569.
